Assay results taken from the supplement of paper PMC10849652.
This is one part of the list.

Chains of the proteins cited; added tags and fusions are not shown. Lines headed by an entry give the natural chain unless they say otherwise; changes in a name come on top.
UniProt P83369: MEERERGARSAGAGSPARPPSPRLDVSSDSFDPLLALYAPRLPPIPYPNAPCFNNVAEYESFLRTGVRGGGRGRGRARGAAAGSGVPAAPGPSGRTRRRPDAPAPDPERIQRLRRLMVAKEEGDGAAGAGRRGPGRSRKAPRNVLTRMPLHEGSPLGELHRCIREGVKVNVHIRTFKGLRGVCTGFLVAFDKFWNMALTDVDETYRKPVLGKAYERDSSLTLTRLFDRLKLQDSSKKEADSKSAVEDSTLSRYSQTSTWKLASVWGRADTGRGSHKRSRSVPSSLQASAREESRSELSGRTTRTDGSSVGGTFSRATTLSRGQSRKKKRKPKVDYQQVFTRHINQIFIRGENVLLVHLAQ
UniProt Q99698: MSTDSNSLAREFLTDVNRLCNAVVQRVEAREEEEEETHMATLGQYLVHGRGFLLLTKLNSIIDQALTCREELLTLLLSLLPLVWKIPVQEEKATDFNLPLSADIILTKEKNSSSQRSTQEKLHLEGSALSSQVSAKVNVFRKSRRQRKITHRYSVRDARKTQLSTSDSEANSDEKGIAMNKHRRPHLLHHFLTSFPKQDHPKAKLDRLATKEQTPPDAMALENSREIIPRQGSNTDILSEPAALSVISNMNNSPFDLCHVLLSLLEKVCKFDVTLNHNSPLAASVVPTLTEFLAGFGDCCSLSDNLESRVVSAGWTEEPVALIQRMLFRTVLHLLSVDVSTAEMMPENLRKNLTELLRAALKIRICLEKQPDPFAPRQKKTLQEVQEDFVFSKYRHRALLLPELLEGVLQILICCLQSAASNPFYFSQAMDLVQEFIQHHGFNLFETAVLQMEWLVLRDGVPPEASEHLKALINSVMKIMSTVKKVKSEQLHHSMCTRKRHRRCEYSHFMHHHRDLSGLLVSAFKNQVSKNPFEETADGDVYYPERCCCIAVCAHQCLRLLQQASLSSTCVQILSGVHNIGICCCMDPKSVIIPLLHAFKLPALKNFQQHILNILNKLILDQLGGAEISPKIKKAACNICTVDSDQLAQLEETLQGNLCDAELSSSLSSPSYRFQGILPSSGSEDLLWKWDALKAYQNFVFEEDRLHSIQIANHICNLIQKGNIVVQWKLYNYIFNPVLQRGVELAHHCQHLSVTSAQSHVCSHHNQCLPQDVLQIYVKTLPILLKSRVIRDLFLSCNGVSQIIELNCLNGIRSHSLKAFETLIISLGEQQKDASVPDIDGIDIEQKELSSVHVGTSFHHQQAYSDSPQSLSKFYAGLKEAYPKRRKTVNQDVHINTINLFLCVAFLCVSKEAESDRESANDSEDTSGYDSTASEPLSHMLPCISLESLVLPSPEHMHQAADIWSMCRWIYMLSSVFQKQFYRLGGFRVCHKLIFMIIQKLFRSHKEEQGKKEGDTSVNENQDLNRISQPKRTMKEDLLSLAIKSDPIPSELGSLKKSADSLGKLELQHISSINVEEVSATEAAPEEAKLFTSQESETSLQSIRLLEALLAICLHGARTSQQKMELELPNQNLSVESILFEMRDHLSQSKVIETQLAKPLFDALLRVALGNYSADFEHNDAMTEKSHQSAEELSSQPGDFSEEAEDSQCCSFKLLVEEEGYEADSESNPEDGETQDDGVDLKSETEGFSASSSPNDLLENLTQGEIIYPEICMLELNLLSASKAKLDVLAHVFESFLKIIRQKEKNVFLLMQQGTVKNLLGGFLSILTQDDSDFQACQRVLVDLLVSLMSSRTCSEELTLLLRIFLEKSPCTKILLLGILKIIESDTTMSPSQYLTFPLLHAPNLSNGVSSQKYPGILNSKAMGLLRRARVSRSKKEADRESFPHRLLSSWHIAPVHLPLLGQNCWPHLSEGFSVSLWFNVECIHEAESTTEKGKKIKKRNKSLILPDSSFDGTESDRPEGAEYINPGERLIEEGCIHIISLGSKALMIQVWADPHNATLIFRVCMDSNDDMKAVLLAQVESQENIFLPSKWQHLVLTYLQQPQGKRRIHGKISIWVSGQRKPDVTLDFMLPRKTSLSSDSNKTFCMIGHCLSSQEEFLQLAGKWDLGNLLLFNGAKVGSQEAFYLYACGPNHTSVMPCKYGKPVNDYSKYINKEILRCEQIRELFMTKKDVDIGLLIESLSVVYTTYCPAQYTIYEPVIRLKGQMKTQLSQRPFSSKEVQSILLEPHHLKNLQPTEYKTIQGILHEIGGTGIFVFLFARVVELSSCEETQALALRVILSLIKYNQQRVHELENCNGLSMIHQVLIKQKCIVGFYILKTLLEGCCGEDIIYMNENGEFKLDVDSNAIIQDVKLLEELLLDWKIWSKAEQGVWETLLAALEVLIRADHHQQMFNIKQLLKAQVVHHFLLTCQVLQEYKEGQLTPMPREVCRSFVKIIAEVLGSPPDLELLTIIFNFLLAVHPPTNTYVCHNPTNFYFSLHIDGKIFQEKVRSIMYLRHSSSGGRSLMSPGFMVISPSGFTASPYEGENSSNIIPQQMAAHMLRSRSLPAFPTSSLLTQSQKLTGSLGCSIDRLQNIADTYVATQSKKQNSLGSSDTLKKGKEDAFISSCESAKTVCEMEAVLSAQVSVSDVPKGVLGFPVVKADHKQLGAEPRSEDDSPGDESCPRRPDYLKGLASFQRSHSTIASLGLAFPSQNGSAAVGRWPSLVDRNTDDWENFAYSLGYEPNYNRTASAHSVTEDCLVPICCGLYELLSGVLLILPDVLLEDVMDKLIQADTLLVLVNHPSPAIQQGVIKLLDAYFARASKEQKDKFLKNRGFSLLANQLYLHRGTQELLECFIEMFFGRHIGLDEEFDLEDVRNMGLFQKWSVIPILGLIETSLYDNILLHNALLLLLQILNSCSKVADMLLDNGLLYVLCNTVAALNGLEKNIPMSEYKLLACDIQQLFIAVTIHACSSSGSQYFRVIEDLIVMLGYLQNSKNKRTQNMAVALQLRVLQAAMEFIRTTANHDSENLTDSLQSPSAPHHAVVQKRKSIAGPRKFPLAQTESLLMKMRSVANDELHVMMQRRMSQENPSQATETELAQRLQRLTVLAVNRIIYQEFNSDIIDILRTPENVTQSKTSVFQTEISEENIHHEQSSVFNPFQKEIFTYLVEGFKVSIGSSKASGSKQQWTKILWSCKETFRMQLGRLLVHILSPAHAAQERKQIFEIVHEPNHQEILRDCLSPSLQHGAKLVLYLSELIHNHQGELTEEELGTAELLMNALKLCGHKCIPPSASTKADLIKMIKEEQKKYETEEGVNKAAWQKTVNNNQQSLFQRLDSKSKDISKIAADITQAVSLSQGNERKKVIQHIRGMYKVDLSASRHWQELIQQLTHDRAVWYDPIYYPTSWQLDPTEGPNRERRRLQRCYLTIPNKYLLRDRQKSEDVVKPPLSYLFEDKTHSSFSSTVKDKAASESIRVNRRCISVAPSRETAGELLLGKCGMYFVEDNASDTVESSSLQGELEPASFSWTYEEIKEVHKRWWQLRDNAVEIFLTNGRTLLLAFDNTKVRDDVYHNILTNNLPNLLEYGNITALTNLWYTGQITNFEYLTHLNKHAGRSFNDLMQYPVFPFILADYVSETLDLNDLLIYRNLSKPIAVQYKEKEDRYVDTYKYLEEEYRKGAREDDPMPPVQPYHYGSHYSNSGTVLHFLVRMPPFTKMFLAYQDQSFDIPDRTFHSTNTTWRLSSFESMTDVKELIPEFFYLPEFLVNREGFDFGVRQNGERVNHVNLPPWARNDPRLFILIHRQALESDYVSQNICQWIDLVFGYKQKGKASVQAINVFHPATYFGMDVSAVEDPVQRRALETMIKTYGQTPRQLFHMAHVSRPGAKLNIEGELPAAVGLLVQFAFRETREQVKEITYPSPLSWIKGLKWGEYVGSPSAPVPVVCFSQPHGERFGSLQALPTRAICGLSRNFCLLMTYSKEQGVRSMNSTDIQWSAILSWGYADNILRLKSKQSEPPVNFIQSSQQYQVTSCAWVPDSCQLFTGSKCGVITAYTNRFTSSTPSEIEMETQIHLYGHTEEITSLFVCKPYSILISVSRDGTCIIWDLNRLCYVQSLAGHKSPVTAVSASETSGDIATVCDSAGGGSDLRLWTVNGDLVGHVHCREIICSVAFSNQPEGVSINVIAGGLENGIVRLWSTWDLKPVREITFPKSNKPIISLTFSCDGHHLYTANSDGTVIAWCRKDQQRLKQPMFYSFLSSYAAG
UniProt Q9Y6D9: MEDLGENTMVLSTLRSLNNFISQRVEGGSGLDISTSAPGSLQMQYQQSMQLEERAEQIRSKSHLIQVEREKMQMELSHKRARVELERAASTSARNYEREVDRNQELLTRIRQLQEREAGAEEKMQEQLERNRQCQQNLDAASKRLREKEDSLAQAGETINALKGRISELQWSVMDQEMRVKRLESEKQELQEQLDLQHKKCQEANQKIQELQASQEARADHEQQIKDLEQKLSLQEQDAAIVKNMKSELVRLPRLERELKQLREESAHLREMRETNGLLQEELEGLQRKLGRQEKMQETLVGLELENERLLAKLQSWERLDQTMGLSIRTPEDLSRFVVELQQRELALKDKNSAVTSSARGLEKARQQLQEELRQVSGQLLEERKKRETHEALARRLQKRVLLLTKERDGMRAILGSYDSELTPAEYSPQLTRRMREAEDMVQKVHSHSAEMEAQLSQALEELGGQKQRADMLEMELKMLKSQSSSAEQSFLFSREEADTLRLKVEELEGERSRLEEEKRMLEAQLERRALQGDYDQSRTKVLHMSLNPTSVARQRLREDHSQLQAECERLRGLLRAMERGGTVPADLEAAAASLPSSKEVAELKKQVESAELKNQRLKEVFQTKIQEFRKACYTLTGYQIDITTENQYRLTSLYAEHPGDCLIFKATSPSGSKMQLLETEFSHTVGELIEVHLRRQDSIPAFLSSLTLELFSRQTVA
UniProt P07948: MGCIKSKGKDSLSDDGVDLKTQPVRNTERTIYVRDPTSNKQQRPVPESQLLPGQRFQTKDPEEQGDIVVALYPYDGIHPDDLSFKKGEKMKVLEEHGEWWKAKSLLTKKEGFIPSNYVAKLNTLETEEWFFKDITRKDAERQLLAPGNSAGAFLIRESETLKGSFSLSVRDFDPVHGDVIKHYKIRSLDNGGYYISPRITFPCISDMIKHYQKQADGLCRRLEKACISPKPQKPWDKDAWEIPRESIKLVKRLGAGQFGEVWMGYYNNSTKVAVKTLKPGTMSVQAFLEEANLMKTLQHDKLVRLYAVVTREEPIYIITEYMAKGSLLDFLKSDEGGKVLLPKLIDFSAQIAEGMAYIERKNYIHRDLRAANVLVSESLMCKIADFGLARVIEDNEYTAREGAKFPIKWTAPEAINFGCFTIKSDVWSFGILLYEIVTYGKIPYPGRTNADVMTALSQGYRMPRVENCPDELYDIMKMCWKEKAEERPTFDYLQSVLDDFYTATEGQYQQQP
UniProt Q86V48: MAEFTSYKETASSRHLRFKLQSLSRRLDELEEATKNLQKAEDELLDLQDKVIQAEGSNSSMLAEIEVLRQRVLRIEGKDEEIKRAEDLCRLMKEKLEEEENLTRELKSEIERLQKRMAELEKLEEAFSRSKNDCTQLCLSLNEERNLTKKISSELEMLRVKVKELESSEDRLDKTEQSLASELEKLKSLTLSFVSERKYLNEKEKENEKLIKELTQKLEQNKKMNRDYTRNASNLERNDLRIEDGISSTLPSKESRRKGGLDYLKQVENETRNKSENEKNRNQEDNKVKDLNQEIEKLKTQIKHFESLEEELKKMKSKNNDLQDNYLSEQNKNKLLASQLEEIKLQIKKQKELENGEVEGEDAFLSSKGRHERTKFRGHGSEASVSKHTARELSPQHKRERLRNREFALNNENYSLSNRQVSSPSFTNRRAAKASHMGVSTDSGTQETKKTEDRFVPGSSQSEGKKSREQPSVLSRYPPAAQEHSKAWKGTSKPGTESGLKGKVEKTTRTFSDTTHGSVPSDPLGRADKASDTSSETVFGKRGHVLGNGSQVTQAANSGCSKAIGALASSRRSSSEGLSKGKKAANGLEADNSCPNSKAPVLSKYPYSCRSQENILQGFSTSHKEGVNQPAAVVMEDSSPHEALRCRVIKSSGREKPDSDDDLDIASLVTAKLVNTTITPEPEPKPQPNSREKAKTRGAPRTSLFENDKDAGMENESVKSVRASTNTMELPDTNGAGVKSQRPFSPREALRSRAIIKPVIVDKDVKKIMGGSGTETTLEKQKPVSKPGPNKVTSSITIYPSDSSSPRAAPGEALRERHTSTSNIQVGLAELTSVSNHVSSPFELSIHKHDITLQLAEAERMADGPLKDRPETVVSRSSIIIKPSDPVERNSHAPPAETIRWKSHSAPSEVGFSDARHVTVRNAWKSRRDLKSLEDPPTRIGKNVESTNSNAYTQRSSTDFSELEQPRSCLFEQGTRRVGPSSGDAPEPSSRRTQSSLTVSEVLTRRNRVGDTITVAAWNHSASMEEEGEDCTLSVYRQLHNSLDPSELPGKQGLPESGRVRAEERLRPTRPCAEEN

What was measured:
Experiment in all cases: log2 fold change, soluble protein after heating vs DMSO (PISA); higher = thermal stabilisation; K562 cells, 10 uM, 30 min; active = over 0.2 and 3.5 SD of the protein, either way, in both replicates (recomputed)
volasertib = compound: CC[C@@H]1C(=O)N(C)c2cnc(Nc3ccc(C(=O)N[C@H]4CC[C@H](N5CCN(CC6CC6)CC5)CC4)cc3OC)nc2N1C(C)C [volasertib]
In short: (§1)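 Quantification of soluble protein used TMTpro 16plex LC-MS/MS, with channel sums equalised. Samples were the supernatant after 21,000xg for 90 min of pooled aliquots from K562 cells (2×10^6 cells/mL) treated with 10 μM compound for 30 min, heated for 3 min over 48°C-58°C, and extracted in PBS with 0.5% NP-40 at 4°C. Values, from duplicates, describe thermal stability against control samples on a log2 fold-change scale.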

[1] = compound: CC[C@H](C)N1C=C(C2=C(C=C(C=C21)C3=CN=C(C=C3)N4CCNCC4)C(=O)NCC5=C(C=C(NC5=O)C)C)C
In short: as §1

epoxomicin = compound: CC[C@H](C)[C@@H](C(=O)N[C@@H]([C@@H](C)O)C(=O)N[C@@H](CC(C)C)C(=O)[C@]1(CO1)C)NC(=O)[C@H]([C@@H](C)CC)N(C)C(=O)C [epoxomicin]
In short: as §1

[2] = compound: CCn1cc(-c2ccnc3[nH]c(-c4cccc(CN(C)C)c4)cc23)c(-c2ccc(NC(=O)N(C)C)cc2)n1
In short: as §1

[3] = compound: CN1CCC(CNc2ccc3ncc(-c4cccc(OC(F)(F)F)c4)n3n2)CC1
In short: as §1

[4] = compound: CN(C)CC(=O)Nc1ccc2[nH]c(=O)c3ccccc3c2c1
In short: as §1

[5] = compound: CCn1c(C(=O)N(C2CC2)C2CC2)cc2c3c(ncn3C)c(Nc3cc(C)n(C)n3)nc21
In short: as §1

rosiglitazone = compound: CN(CCOC1=CC=C(C=C1)C[C@H]2C(=O)NC(=O)S2)C3=CC=CC=N3 (racemic) [rosiglitazone]
In short: as §1

[6] = compound: CN1C2=C(C3=C1C(=O)N(N=C3)CC4=CC(=CC=C4)N)SC(=C2)S(=O)C
In short: as §1

[7] = compound: CC[C@@H]1C(=O)N(C)c2cnc(Nc3ccc(C(=O)NC4CCN(C)CC4)cc3OC)nc2N1C1CCCC1
In short: as §1

Measured: log2 fold change

MAPRE3 isoform 2 (UniProt Q9UPY8)
inactive: volasertib 0.165 | [1] 0.04

MAP3K20 isoform 2 (UniProt Q9NYL2)
inactive: volasertib -0.1 | [1] -0.067 | epoxomicin -0.03

LSM11 (UniProt P83369)
inactive: [2] 0.031 | [3] 0.013

LSM14A, A0A140TA76
inactive: [4] -0.136

LRRC8E (UniProt Q6NSJ5)
inactive: volasertib -0.048 | epoxomicin -0.009 | [5] -0.113 | [2] -0.161 | [4] -0.057 | rosiglitazone -0.078 | [6] -0.023 | [3] -0.006

LYST (UniProt Q99698)
inactive: [1] -0.297 | epoxomicin -0.217 | [2] 0.143 | [4] -0.187 | rosiglitazone 0.072 | [6] 0.056 | [3] -0.426

MAD1L1 (UniProt Q9Y6D9)
inactive: volasertib -0.167 | epoxomicin 0.267 | [5] -0.003 | [2] -0.126 | [4] 0.237 | rosiglitazone 0.257 | [3] -0.061

LYN isoform 2 (UniProt P07948)
inactive: volasertib -0.003 | [1] 0.036 | epoxomicin 0.246 | [4] 0.007

LYPLA1, A0A087X1K9
inactive: [6] -0.409

MAP4K3 (UniProt Q8IVH8)
inactive: [7] -0.035 | [5] 0.038 | [4] -0.315 | rosiglitazone 1.05

LTBP1 isoform 4 (UniProt Q14766)
inactive: volasertib -0.02 | [1] -0.081 | epoxomicin 0.133 | [5] 0.045 | [2] 0.065 | [4] -0.153 | rosiglitazone 0.108 | [6] 0.152 | [3] 0.358

LUZP1 (UniProt Q86V48)
inactive: volasertib -0.021 | [1] -0.026 | epoxomicin -0.22 | [2] 0.026 | [4] 0.035 | [6] 0.026 | [3] -0.039
